# Measurements from PubChem BioAssay AID590 (National Center for Advancing Translational Sciences (NCATS), 2007).
# The campaign covered roughly 59,000 compounds. About 6,500 (11%) were called active. Inconclusive results, whose numbers are uncertain, are shown with a selection of clear calls. No stated cut-off is given here; in the data, active means max dye-equivalent concentration above about 10 nM; inconclusive means mostly about 1.1 nM to 9.6 nM; inactive means weaker than that.
# Experiment: qHTS Assay for Spectroscopic Profiling in A350 Spectral Region
# Conditions: Compound autofluorescence, 340/450 nm, Alexa 350 dye-equivalents; hits give high values
row,SMILES,max dye-equivalent concentration
1,CCOc1ccc(OCC)c(NC(=O)CN2CCN(c3cc(C)ccc3C)CC2)c1,inconclusive: 2.3 nM
2,CCn1c(SCC(=O)C(C)(C)C)nnc1-c1cnccn1,inconclusive: 1.2 nM
3,COc1ccc(Nc2nc3c(c(=O)n(C)c(=O)n3C)n2CCO)cc1,inconclusive: 8.8 nM
4,COc1ccccc1NC(=O)C1=C(C)Nc2ncnn2C1c1ccccc1C (stereo not drawn),inconclusive: 1.4 nM
5,O=C(Nc1ccccc1)N1CCC2(CC1)CCN(S(=O)(=O)c1ccccc1)CC2,inactive
6,O=C1C(SCCO)=C(SCCO)C(=O)c2ccccc21,inactive
7,CN[C@@H](CC(C)C)C(=O)N[C@@H]1C(=O)N[C@H](CC(N)=O)C(=O)N[C@H]2C(=O)N[C@H]3C(=O)N[C@H](C(=O)N[C@H](C(=O)O)c4cc(O)cc(O)c4-c4cc3ccc4O)[C@H](O)c3ccc(c(Cl)c3)Oc3cc2cc(c3O[C@@H]2O[C@@H](CO)[C@@H](O)[C@@H](O)[C@H]2O[C@H]2C[C@](C)(N)[C@H](O)[C@H](C)O2)Oc2ccc(cc2Cl)[C@@H]1O,inactive
8,COC(=O)c1cn(C)c2ccc(S(=O)(=O)N3CCCC3)cc2c1=O,inconclusive: 3 nM
9,Cc1cccc(Nc2ncc3c(n2)CC(c2ccco2)CC3=O)c1 (stereo not drawn),inconclusive: 2.6 nM
10,CCOC(=O)N1CCC2(CC1)C(C(=O)C13CC4CC(CC(C4)C1)C3)C2(C#N)C#N (stereo not drawn),inconclusive: 8.4 nM
11,CCOc1ccc2nc(NCCNC(=O)Nc3cccc(C)c3)c(C#N)cc2c1,active: 45 nM
12,CCCc1cc(=O)oc2cc3oc(C)c(C)c3cc12,active: 15 nM
13,CC(=O)Nc1nc2c(c3c1c(=O)oc1ccccc13)CC(C)CC2 (stereo not drawn),active: 230 nM
14,Cn1c(=O)[nH]c(=O)c2c1nc(SCCN1CCOCC1)n2Cc1ccccc1,inconclusive: 1.2 nM
15,COc1ccc(C(=O)O)cc1S(=O)(=O)Nc1cccc(C)c1,inconclusive: 1.4 nM
16,COc1cccc(-c2noc(-c3cccs3)n2)c1,inconclusive: 2.5 nM
17,O=C(CSc1c[nH]c2ccccc12)N1CCOCC1,inconclusive: 1.3 nM
18,O=C(Nc1ccc2nccnc2c1)c1cnccn1,inconclusive: 9.5 nM
19,Cc1[nH]c2ccccc2c(=O)c1CN(C)Cc1ccccc1,inconclusive: 1.2 nM
20,COc1ccc(C(CCc2ccc(C)o2)NC(=O)Nc2ccc(OC)cc2OC)cc1 (stereo not drawn),inconclusive: 2.1 nM
21,CC(=O)OCC1=C(C(=O)O)N2C(=O)[C@@H](NC(=O)Cc3cccs3)[C@H]2SC1,inconclusive: 4.6 nM
22,CCCCCCCCCCCCCCCCCC(=O)NC[C@@H](COP(=O)([O-])OCC[N+](C)(C)C)OCC,inactive

row,SMILES,max dye-equivalent concentration
1,CCOc1ccc2nc(NC(=O)CSc3nc4c(c(=O)n(C)c(=O)n4C)n3CC)sc2c1,inactive
2,CSc1nc2[nH]c3c(c2c2ncnn12)CCCC3,inconclusive: 1.2 nM
3,CCSCc1nnc(SCC(=O)Nc2cccc(SC)c2)n1C,inactive
4,NC(=O)c1sc2nc3c(c(-c4ccco4)c2c1N)CCC3,inactive
5,CCCN1CCN(C(=O)Cn2cccc2C(=O)c2ccccc2)CC1,inactive
6,C[N+](C)(C)/N=C\c1ccc(O)c(O)c1,inactive
7,CCOC(=O)c1c(C)nc2ncccn12,active: 31 nM
8,O=C(O)[C@H]1CCCC[C@@H]1C(=O)Nc1nc2ccccc2[nH]1,inactive
9,C=CCOC(=O)C(C#N)c1nc2ccccc2nc1N1CCN(Cc2ccc3c(c2)OCO3)CC1 (stereo not drawn),inconclusive: 4.1 nM
10,CCN(CC)CCNC(=O)COc1ccc(OC)cc1,inactive
11,O=C(O)COc1ccccc1C1C2C(=O)N(c3ccc(F)cc3)C(=O)C2ON1c1ccccc1 (stereo not drawn),inactive
12,CCCn1c(=S)[nH]c2cc(C(=O)N3CCCC(C(=O)OCC)C3)ccc2c1=O (stereo not drawn),active: 61 nM
13,CCOc1ccc(-n2cnnn2)cc1S(=O)(=O)NCCc1ccc(OC)c(OC)c1,inconclusive: 2.4 nM
14,CNC(=O)CSc1nnnn1-c1ccc(C)cc1C,inactive
15,C/C(Cl)=C\Cn1c(N2CCCC2)nc2c1c(=O)[nH]c(=O)n2C,inconclusive: 3.9 nM
16,CCOc1ccc(-n2c(SCc3ccc(C#N)cc3)nnc2-c2cccnc2)cc1,inconclusive: 1.1 nM
17,O=C(CSc1nnc2ccccn12)N1CCc2ccccc2C1,inconclusive: 1.2 nM
18,COCCNS(=O)(=O)c1ccc(-c2ccc(S(=O)(=O)NCCOC)cc2)cc1,inconclusive: 4 nM
19,CC1=Nn2c(nnc2-c2cc(-c3ccccc3)n[nH]2)SC1,inactive
20,CC(=O)N1CCC2(CC1)CC(=O)c1cc(OCC(=O)NCc3ccc(C)cc3)ccc1O2,active: 1300 nM
21,Cc1cc(=O)c2c(O)c(O)ccc2o1,active: 25 nM
22,COCCCn1c(-c2ccccc2Cl)n[nH]c1=S,inconclusive: 2 nM

# Pulled by compound from above:
row,SMILES,max dye-equivalent concentration
6,C[N+](C)(C)/N=C\c1ccc(O)c(O)c1,inactive
2,CSc1nc2[nH]c3c(c2c2ncnn12)CCCC3,inconclusive: 1.2 nM
8,O=C(O)[C@H]1CCCC[C@@H]1C(=O)Nc1nc2ccccc2[nH]1,inactive
22,COCCCn1c(-c2ccccc2Cl)n[nH]c1=S,inconclusive: 2 nM

# More results.

row,SMILES,max dye-equivalent concentration
1,CCOC(=O)N1CCN(C(=O)c2cc(C)c3c(C)nn(-c4ccccc4)c3n2)CC1,inconclusive: 1.1 nM
2,COc1ccc2occ(C(=O)c3coc4ccc(O)c(CN(C)C)c34)c2c1,inconclusive: 2 nM
3,Cc1nn(C(=O)c2cccs2)c(C)c1CN1C(=O)c2ccccc2C1=O,inactive
4,Cc1nccn1-c1c2c(c(C#N)c3nc4ccccc4n13)CCCC2,inconclusive: 1.9 nM
5,CN(C)S(=O)(=O)c1ccc(C(=O)Nc2nnc(Cc3ccccc3)s2)cc1,inconclusive: 8.9 nM
6,CC1(C)CC(=O)C2=C(C1)OC(N)=C(C#N)C2c1cccc(OC(=O)c2ccco2)c1 (stereo not drawn),inactive
7,COc1cc2c(cc1OC)C1=C(C#N)COCN1CC2,active: 42 nM
8,Cc1ccc(S(=O)(=O)NC(C)C(c2cccs2)N2CCN(C)CC2)cc1 (stereo not drawn),inconclusive: 2.6 nM
9,CCSc1nc(N)c2c3c(sc2n1)CCC3,inconclusive: 4 nM
10,COc1ccc(Oc2nc(C)cc(C)c2C#N)cc1,inactive
11,Cc1nn(CC(=O)Nc2nnc(CC(=O)N3CCCC3)s2)c(=O)c2ccccc12,inconclusive: 6.2 nM
12,Cc1ccccc1NS(=O)(=O)c1ccc2[nH]cc(C(=O)N(C)Cc3ccco3)c(=O)c2c1,inconclusive: 8.7 nM
13,Cc1ccnc(NC(=O)CCC(=O)N(CC(=O)NC2CCCCC2)c2ccc3c(c2)OCO3)c1,inconclusive: 1.5 nM
14,CC(C)c1nc2oc3c(N4CCNCC4)ncnc3c2c2c1CCC2,inconclusive: 8.5 nM
15,Cc1ccc2c(c1)c1c3n2CCN(C(=O)Cn2c(-c4ccccc4)noc2=O)C3CCC1 (stereo not drawn),inconclusive: 1.1 nM
16,CCCOc1ccccc1NC(=O)c1ccc(N)cc1,inactive
17,COc1cc(/C=C(/C#N)c2ccc(F)cc2)ccc1OCc1ccc(C(=O)O)o1,inconclusive: 7.2 nM
18,COc1cc(OC)c(-c2nc3cnccc3n2C)cc1OC,inconclusive: 4.6 nM
19,COc1nc(-c2ccccc2)ccc1-c1noc(-c2ccc(F)cc2)n1,inconclusive: 4.9 nM
20,Cc1[nH]nc2c1C(c1ccoc1)C(C#N)=C(N)O2 (stereo not drawn),inactive
21,CCOC(=O)Nc1cc2c(cc1C(C)=O)OCO2,active: 270 nM
22,COc1ccccc1C1C(C(=O)NCc2ccccc2)=C(C)Nc2ncnn21 (stereo not drawn),active: 12 nM

row,SMILES,max dye-equivalent concentration
1,COc1ccc(Cn2c(=O)[nH]c3cc(C(=O)NCCCN4CCCC4)ccc3c2=O)cc1,active: 36 nM
2,CCC1CCCCN1CC(=O)Nc1cc(C)nn1-c1nc(C)cc(C)n1 (stereo not drawn),inactive
3,COc1ccc(C(=O)c2oc3nc(C)cc(C)c3c2N)cc1,inconclusive: 2.3 nM
4,OC(CN1CCOCC1)C12CC3CC(CC(C3)C1)C2 (stereo not drawn),active: 31 nM
5,Cc1cc(NC(=O)CCC(=O)N(CCC(C)C)CC(=O)NCC2CCCO2)no1 (stereo not drawn),inconclusive: 9.5 nM
6,CCCc1nnc(NC(=O)c2c(O)c3cccc4c3n(c2=O)CC4)s1,inconclusive: 2.6 nM
7,CC1CCCN(C(=O)COC(=O)c2n[nH]c3ccccc23)C1 (stereo not drawn),inconclusive: 1.4 nM
8,CCN(c1cccc(C)c1)S(=O)(=O)c1ccc2c(c1)CCN2C(C)=O,inactive
9,Cc1ccc(CSC2=Nc3ccccc3C3=NC(CCC(=O)NCc4ccco4)C(=O)N23)cc1 (stereo not drawn),active: 31 nM
10,CN(C)c1ncc2nc(-c3cc(F)cc(F)c3)c(=O)n(-c3ccccc3)c2n1,inconclusive: 1.8 nM
11,N#C[C@@H]1[C@@H]2C(=O)N(c3ccc4c(c3)OCCO4)C(=O)[C@@H]2C2c3ccccc3C=CN21 (stereo partly drawn),inactive
12,Cc1cccc(NC(=O)COc2ccccc2)c1,inconclusive: 2 nM
13,Cc1cc(N/C=C/C(=O)c2cccc3ccccc23)no1,inconclusive: 6.1 nM
14,COc1ccc(S(=O)(=O)NCCC(=O)NC2CCCCCCC2)cc1,inconclusive: 6.5 nM
15,COc1ccc(OCCSc2nnnn2C2CCCCC2)cc1,inactive
16,O=S1(=O)CCC(NCC2CCCO2)C1 (stereo not drawn),inconclusive: 1.4 nM
17,CCn1c(-c2ccco2)nc2ccccc21,inconclusive: 6.4 nM
18,COc1ccc(S(=O)(=O)Nc2ccccc2C(=O)NCc2ccco2)cc1Br,inactive
19,O=C(CSc1nc2c(sc3ccccc32)c(=O)n1Cc1ccco1)NCC1CCCO1 (stereo not drawn),inconclusive: 7.8 nM
20,CCCCCn1c(=O)[nH]c2cc(C(=O)NCCCN3CCCCC3)ccc2c1=O,active: 41 nM
21,Cc1c(C#N)c(SCC(N)=O)nc2c1CCCC2,inactive
22,CCN1CCN(S(=O)(=O)c2ccc(OC)c(Br)c2)CC1,active: 12 nM
